Laboratory results as given in PubChem BioAssay AID2685 (National Center for Advancing Translational Sciences (NCATS), 2010).
The whole screen tested about 320,000 compounds, of which about 2,100 (0.66%) were called active. Inconclusive means that the source gave no clear call. Such entries were picked first, then a sample of the others. Calls follow the shape of the dose curve; as a rule, active = well fitted inhibition curve with a large enough effect in the signal ratio, with a control signal flat (not every such curve was filed as active); inconclusive = small, poorly fitted or top-dose-only effect, or effect the other way, or a change in a side signal; inactive = flat fitted curve, though single readings scatter; the % refers to the signal ratio. A potency beside an inconclusive call is a rough fit, not a confirmed value.

Assay: qHTS Assay for Lipid Storage Modulators in Drosophila S3 Cells
Details: BODIPY lipid droplet fluorescence, 18-24 h, cells fed with added oleic acid; lipid storage change, negative = inhibition: at 46.1 µM (top of the series) unless noted
Outline: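 Laser-scanning cytometry quantifies lipid droplet accumulation (500–530 nm total intensity; droplet/cell object ratio) in oleic acid-fed (400 uM added) Drosophila S3 cells treated with a concentration series. 20 uM Triacsin C defined 100% inhibition.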
% is scaled to controls: 0 for no effect and ±100 for the full control effect; potency is read from the fitted curve at half-maximal effect.

Row | Structure (SMILES) | Potency | lipid storage change, negative = inhibition | outcome
1 | CN(C)S(=O)(=O)c1ccc2c(c1)/C(=C/c1cc3c([nH]1)CCCC3)C(=O)N2 | active: 5.17 µM | – | –
2 | CCOc1ccc(CN(C)c2ccc(S(=O)(=O)N3CCN(C)CC3)cc2[N+](=O)[O-])cc1OC | inconclusive: 6.51 µM [falling, single point] | – | –
3 | CCOCc1cc(CN2CCCC(CNC(=O)c3ccco3)C2)ccc1OC (stereo unspecified) | inconclusive: 23.1 µM [activator, partial curve] | – | –
4 | COc1ccc(-c2nc(C)sc2C)cc1 | – | inconclusive: 16.2% | –
5 | O=C(Nc1ccccc1F)C(=O)c1cn(CC(=O)N2CCCCC2)c2ccccc12 | – | inactive: 8.05% | –
6 | COc1ccc(C)cc1N1CC(C(=O)Nc2ccccc2N2CCCCC2)CC1=O (stereo unspecified) | active: 1.03 µM | – | –
7 | C=CCc1cccc(/C=N/NC(=O)CNc2ccccc2)c1O | – | inconclusive: -26.9% | –
8 | C/C(=N\NC(=O)c1ccc(F)cc1)c1cccc(NC(=O)c2cccc(F)c2)c1 | – | inactive: -24.1% | –
9 | O=C(C1=NN[C@@H]2C(=O)N(c3ccccc3C(F)(F)F)C(=O)[C@H]12)c1cnccn1 | – | inconclusive: 43.2% | –
10 | CC(c1ccco1)N(C(=O)CSc1ccc(Br)cc1)c1ccccn1 (stereo unspecified) | – | inconclusive: 27.9% | –
11 | Cc1ccc(C)c(S(=O)(=O)NC(C)CCc2ccccc2)c1 (stereo unspecified) | inconclusive: 6.51 µM [activator, single point] | – | –
12 | C[C@H](NC(=O)c1[nH]cnc1C(=O)Nc1ccc(CNC(=O)OC(C)(C)C)cc1)C(=O)OCc1ccccc1 | inconclusive: 29.1 µM [falling, single point] | – | –
13 | CCN1C(=O)/C(=C\c2nc3ccccc3c(=O)n2CC)c2ccccc21 | – | inconclusive: -48.3% | –
14 | CCOC(=O)C1(CC2CCCCO2)CCN(Cc2cc(F)ccc2-n2cccn2)CC1 (stereo unspecified) | – | inconclusive: 6.65% | –
15 | Cc1ccc(S(=O)(=O)Nc2cccc(C(=O)NCCCn3ccnc3)c2)cc1F | – | inconclusive | –
16 | COC(=O)CCCC1=CC2=C(c3ccccc3)C(=O)C(C)(OC(=O)C3CCCC3)C(=O)C2=CN1C1CCCCC1 (stereo unspecified) | – | inconclusive: -20.6% | –
17 | Cc1cccc(NC(=O)c2sc3nc4c(c(-c5ccco5)c3c2N)CCC4)c1 | inconclusive: 1.03 µM [activator, partial curve] | – | –
18 | CCCCc1c(O)nc2n(c1=O)CCS2 | inconclusive: 6.51 µM [falling, single point] | – | –
19 | Cc1cc2c(cc1S(=O)(=O)NC1CCCCC1C)OCC(=O)N2 (stereo unspecified) | inconclusive: 0.461 µM [falling, single point] | – | –
20 | CCCn1nnc(NC(=O)/C=C/c2cc(Br)ccc2OC)n1 | inconclusive: 3.66 µM [activator, full curve, poor fit] | – | –
21 | CC(C)c1ccc(/C=C/C(=O)NC(=S)Nc2ccc(CN3CCOCC3)cc2)cc1 | inconclusive: 1.16 µM [falling, full curve, poor fit] | – | –
22 | COCCSc1nnc(NS(=O)(=O)c2ccc(C)cc2)s1 | – | inconclusive: 21.7% | –
23 | COCC(=O)N/N=C\c1ccc(OC/C=C/c2ccccc2)c(OC)c1 | inconclusive: 0.058 µM [falling, full curve, poor fit] | – | –
24 | CC(C)(C)[C@H]1CCC(=O)N([C@H](CSc2ccccc2)Cc2ccccc2)CC1 | – | inconclusive: 43.6% | –
25 | O=C(CSc1cn(CCNC(=O)c2ccccc2F)c2ccccc12)NCC1CCCO1 (stereo unspecified) | – | inconclusive: -47.4% | –
26 | CN(C)S(=O)(=O)N1CCN(C(=O)c2cccs2)CC1 | – | inconclusive: -125% | –

Row | Structure (SMILES) | Potency | lipid storage change, negative = inhibition | outcome
27 | COC(=O)c1cccc(NC(=O)CN2C(=O)c3ccccc3C2=O)c1 | – | inconclusive: 41.1% | –
28 | COC(=O)C1(Cc2cc(-c3ccccc3)no2)CCN(C(=O)OC(C)(C)C)CC1 | inconclusive: 6.51 µM [falling, single point] | – | –
29 | CCn1c(-c2c[nH]c3ccccc23)n[nH]c1=S | – | inconclusive: 10.1% | –
30 | CC(=O)Nc1ccc(SCC(=O)Nc2cc(C)on2)cc1 | inconclusive: 0.0046 µM [falling, full curve, poor fit] | – | –
31 | O=C(NNc1ccccc1Br)C(=O)n1ccc2ccccc21 | – | inconclusive: -24.5% | –
32 | N#CC(C#N)=C1c2cc(S(N)(=O)=O)ccc2-c2ccc(S(N)(=O)=O)cc21 | – | inconclusive: 0.0241% | –
33 | COc1ccccc1N1CCN(/N=C\c2ccc(C)o2)CC1 | – | inconclusive: -16.9% | –
34 | CCc1cccc2c(C(=O)COC(=O)C3=NNC(=O)CC3)c[nH]c12 | – | inconclusive: 15.8% | –
35 | CC(C(=O)NC(N)=O)N1C(=O)NC(c2ccccc2)(c2ccccc2)C1=O (stereo unspecified) | inconclusive: 18.4 µM [activator, partial curve] | – | –
36 | O=C(Cc1c2ccccc2nc2ccccc12)c1ccccc1 | inconclusive: 0.461 µM [activator, full curve, poor fit] | – | –
37 | Cc1ccc(-c2nn(-c3ccccc3)cc2CO)cc1 | – | inconclusive: 45.3% | –
38 | O=C(Cn1nnc(-c2ccc(Cl)cc2)n1)N1CCN(C(=O)c2ccco2)CC1 | – | inconclusive: 72.3% | –
39 | CCN(CCO)Cc1csc2ccc(C(C)(C)C)cc12 | – | inconclusive: 2.74% | –
40 | COc1ccc(C(=O)O)cc1S(=O)(=O)N1CCN(c2ccccn2)CC1 | active: 0.82 µM | – | –
41 | CCCN1C(=O)/C(=C/c2cc(C)n(C)c2C)SC1=Nc1ccc(OC)cc1 | – | inconclusive: 73.4% | –
42 | COc1ccc(CCn2c(=N)c(C(=O)NCC3CCCO3)cc3c(=O)n4cccc(C)c4nc32)cc1OC (stereo unspecified) | inconclusive: 1.64 µM [falling, partial curve, poor fit] | – | –
43 | CCOC(=O)c1c(NC(=S)Nc2ccccc2)sc2c1CCN(C)C2 | – | inconclusive: -38.1% | –
44 | COc1ccc(OCC(=O)N2CCOCC2)cc1 | inconclusive: 5.8 µM [falling, full curve, poor fit] | – | –
45 | O=C(CNC(=O)c1ccc(Cl)cc1Cl)OCc1ccccc1 | – | inconclusive | –
46 | O=C(NCCCc1ccccc1)c1ccccc1 | – | inconclusive: 21.2% | –
47 | Cc1ccccc1NC(=O)CN1C(=O)NC2(CCc3ccccc32)C1=O (stereo unspecified) | inconclusive: 3.66 µM [falling, full curve] | – | –
48 | Cc1ccc(-n2nc(-c3ccco3)cc2C(=O)O)cc1 | inconclusive: 25.9 µM [activator, partial curve, poor fit] | – | –
49 | COC(=O)c1[nH]c2ccc(Cl)cc2c1NC(=O)CN1CCC(C(N)=O)CC1 | inconclusive: 20.6 µM [activator, single point] | – | –
50 | CNC(=S)Nc1ccc([N+](=O)[O-])cc1 | – | inconclusive: -3.17% | –
51 | CCN(CC(=O)Nc1c(F)cccc1F)C(=O)CNC(=O)c1ccc2ccccc2c1 | – | inconclusive: 24.4% | –
52 | COc1cccc(C(C)NC(=O)C2CCCO2)c1 (stereo unspecified) | inconclusive: 1.3 µM [activator, partial curve] | – | –

Three records drawn at random from the list so far, as already listed:
Row | Structure (SMILES) | Potency | lipid storage change, negative = inhibition | outcome
27 | COC(=O)c1cccc(NC(=O)CN2C(=O)c3ccccc3C2=O)c1 | – | inconclusive: 41.1% | –
50 | CNC(=S)Nc1ccc([N+](=O)[O-])cc1 | – | inconclusive: -3.17% | –
39 | CCN(CCO)Cc1csc2ccc(C(C)(C)C)cc12 | – | inconclusive: 2.74% | –

(listing goes on)

Row | Structure (SMILES) | Potency | lipid storage change, negative = inhibition | outcome
53 | CN(C)CCNC(=S)Nc1ccc(-c2nc3ccccc3[nH]2)cc1 | inconclusive: 6.51 µM [rising, partial curve] | – | –
54 | CCc1cc(=O)oc2cc(OCC(=O)N3CCCc4ccccc43)ccc12 | – | inconclusive: 22.3% | –
55 | O=C(CNC(=O)c1ccccc1F)Nc1ccncc1 | – | inconclusive | –
56 | COc1cc(NC(=O)CSc2ccc(-c3cccnc3)nn2)cc(OC)c1 | – | inconclusive: -37% | –
57 | CC(=O)c1ccc(S(=O)(=O)N2CCN(C(=O)CN3C(=O)NC4(CCCC4)C3=O)CC2)cc1 | – | inconclusive: 8.21% | –
58 | Cc1cc(C)cc(OCC(=O)OCC(=O)NC2CCCCCCC2)c1 | – | – | inactive [at 46.1 µM]
59 | Cn1c(CN2CCCC2)nc2cc(NC(=O)c3cccs3)ccc21 | – | inconclusive: 21% | –
60 | O=C(NCc1ccco1)c1ccc(N2CCCCC2)c([N+](=O)[O-])c1 | inconclusive: 20.6 µM [activator, single point] | – | –
61 | Cc1ccc(C2N(c3ccc(F)cc3)C(=O)C3CCCN32)cc1 (stereo unspecified) | – | inconclusive: -66.3% [at 9.22 µM] | –
62 | Cc1cccc(NC(=O)C2CC(=O)N(c3ccc4c(c3)OCCO4)C2)n1 (stereo unspecified) | inconclusive: 29.1 µM [cytotoxic, single point] | – | –
63 | CC1CCCCC1NC(=O)C1CCN(S(=O)(=O)N2CCCCCC2)CC1 (stereo unspecified) | inconclusive: 0.103 µM [falling, full curve, poor fit] | – | –
64 | CCCCNC(=O)C(=O)N/N=C/c1ccc(C(=O)OC)cc1 | – | inconclusive: -9.22% | –
65 | COc1ccc2oc(=N)c(C(=O)NCc3ccccc3)cc2c1 | – | inactive: -29.1% | –
66 | COc1ccc(OC)c(C2=NS(=O)(=O)N(C)C(C(=O)Nc3ccc(F)cc3F)=C2)c1 | – | inconclusive: -42% | –
67 | CCN(CC(=O)Nc1ccc(OC)cc1)C(=O)c1ccc(NS(=O)(=O)c2ccc(C(C)=O)cc2)cc1 | – | inconclusive | –
68 | O=C(NCc1cccnc1)C(=O)N/N=C/c1ccc([N+](=O)[O-])cc1 | – | inconclusive: 1.65% | –
69 | CCOC(=O)[C@H]1[C@H]2COc3ccccc3[C@@H]2N2C(=O)[C@@H](CO)NC(=O)[C@@]12C | inconclusive: 20.6 µM [activator, single point] | – | –
70 | Cc1ncsc1C(=O)Nc1cccc(C(F)(F)F)c1 | – | inactive: 8.39% | –
71 | Cc1cc(C(=O)NC(CC(C)C)C(=O)O)cc(C)c1[N+](=O)[O-] (stereo unspecified) | – | inconclusive: -2.96% | –
72 | Cc1ccc(-c2nnc3ccc(SCC(=O)Nc4cc(C)on4)nn23)cc1 | – | inconclusive: 37.7% | –
73 | O=C(NC1CC(=O)N(c2ccccc2)C1)C1CC1 (stereo unspecified) | – | inconclusive | –
74 | Cc1cc(OCC(=O)NCc2cccnc2)c2c(C)c(Cc3ccccc3)c(=O)oc2c1 | inconclusive: 18.4 µM [falling, single point] | – | –
75 | O=C(O)CCc1ccc(-c2ccccc2)n1Cc1ccco1 | inconclusive: 7.31 µM [falling, single point] | – | –
76 | O=C(CC1OC(=O)c2ccccc21)c1ccco1 (stereo unspecified) | inconclusive: 5.17 µM [falling, single point] | – | –
